## Primary screen of a compound library

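Whole-cell assay for inhibitors of Mycobacterium tuberculosis growth, labelled Cornell in the record; the read-out is not stated. The concentration is filed as 10 mM, unlikely as a test dose, so the dose is not known. The record gives no direction; compounds strong in two other growth screens of this library score well above the rest, so higher reads as stronger inhibition. About 53,000 compounds were tested under these conditions; 1.7% (about 900) showed 50% or more at least once.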

Values are the deposited “Percent Effect”, in %. How 0% and 100% were set is not recorded. Most values in the screen are low, and negative values occur. The compounds are a random part of those screened.

| SMILES | Percent Effect |
|---|---|
| `CC1CCCN(CCNC(=O)c2cncnc2C(C)C)C1` (centres undefined) | -30.06 |
| `Fc1cccc(-c2nnn3c2COCC(CNCc2nccs2)C3)c1.O=C(O)C(F)(F)F` (centres undefined) | -1.085 |
| `COCc1c(Br)cccc1NC(=O)CC(F)(F)F` | 13.28 |
| `Cc1nccn1-c1ccc(=O)n(CCNC(=O)c2c(F)cccc2Cl)n1` | 5.553 |
| `CCN1C(=O)CCCC12CCCN(C(=O)c1ccoc1C)C2` (centres undefined) | 23.19 |
| `Cc1cc(NC(=O)Cc2ccccc2O)cnc1N1CCCCC1` | 28.35 |
| `COC(=O)C1CCCCN1Cc1cccc(C(=O)NCc2ccco2)c1` (centres undefined) | -3.013 |
| `Cc1cc(NC(C)C(=O)N2CCN(c3ncccn3)CC2)ccc1F` (centres undefined) | -10.25 |
| `[H][C@@]12C[C@@H](O)CN1C[C@H](Cc1ccccc1)N(Cc1cnn(C=C)c1C)C2` | -13.09 |
| `CCC(=O)N1CCCCC1c1nc(O)c2c(n1)CN(C(C)=O)CC2` (centres undefined) | 23.72 |
| `CCc1cnc2c(c1Nc1ccc3c(c1)OCO3)c(=O)n(C)c(=O)n2C` | 39.54 |
| `CN(C)CCN1CCCC12CCN(C(=O)c1ccco1)CC2.O=C(O)C(F)(F)F.O=C(O)C(F)(F)F` | 13.85 |
| `Cc1ccc(NC(=O)N2CCOC(C)C2)cc1Cl` (centres undefined) | 31.91 |
| `CC1CCC(NC(=O)CNC2(c3ccc(Br)cc3)CCOCC2)CC1` (centres undefined) | 29.91 |
| `NC(=O)Cn1cc(NC(=O)N2CCCC2)cn1` | 1.106 |
| `O=C(O)C(F)(F)F.[H][C@@]12CCCO[C@]1([H])[C@@H](OC)CN2CC1CC1` | -3.65 |
| `CC(=O)N1N=C(c2ccccc2)OC1C(=O)NCCOc1ccccc1` (centres undefined) | 3.441 |
| `O=C(NCCCn1cccn1)C1(c2ccc(Br)cc2)CC1` | 6.61 |
| `COc1cccc2c1ccn2CCC(=O)N1CCC(C(=O)O)CC1` | 34.5 |
| `O=C(CC1CN(Cc2ccccc2)CCO1)NCCN1CCOCC1` (centres undefined) | -25.76 |
| `Cc1cccc(OCCSCCn2nc3ccccn3c2=O)c1` | 14.61 |
| `COCC(=O)N1CCC(C(=O)N(C)CCCc2nccn2C)CC1` | -0.6112 |
| `Cn1ncc(Cl)c1C(=O)NCCN1CCC(O)(c2ccc(F)cc2)CC1` | 12.25 |
| `Cc1ccc(CN2CCn3cc(CN(C)Cc4ccco4)nc3C2)o1.O=C(O)C(F)(F)F.O=C(O)C(F)(F)F` | 18.94 |
| `Cc1nn(C(C)C)c(C)c1NC(=O)c1ccc(F)cc1` | 12.38 |
| `c1cnn(CCNCc2ccc(N3CCCCC3)cc2)c1` | -12.61 |
| `CN(Cc1ncnn1C)c1ccnc(Cc2ccccc2)n1` | 11.5 |
| `O=C(N[C@@H]1CC[C@@H](N2CCCC2)[C@@H]1O)c1cc2cccc(F)c2[nH]1` | 12.15 |
| `[H][C@]12CCN[C@@]1([H])CN(C(=O)CCC(C)C)C2` | 7.777 |
| `CCn1ncc2c1CN(C(=O)c1cscn1)CC2COC.O=C(O)C(F)(F)F` (centres undefined) | 16.56 |
| `[H][C@]12CC[C@]([H])(CN(Cc3ccccc3C#N)C1)N(CC1CCC1)C2=O` | 24.79 |
| `O=C(c1cnccn1)N1CCc2onc(CN3CCOCC3)c2C1` | -25.67 |
| `CCn1nccc1CNC(=O)C1CCCCC1` | -0.4227 |
| `Cn1cnnc1CNC(=O)C1CCCN(Cc2ccccc2)C1` (centres undefined) | -14.9 |
| `Cc1cc(=O)[nH]c(-n2nc(-c3cccs3)cc2N)n1` | 98.99 |
| `CNC(=O)c1ccc(OC2CCN(S(C)(=O)=O)CC2)c(Cl)c1` | -16.8 |
| `O=C(c1nc2c(s1)CCCN2C(=O)C1CC1)N1CCCC1` | 3.936 |
| `O=C(O)C(F)(F)F.O=C(O)C(F)(F)F.[H][C@@]12CN(Cc3ccccn3)C[C@]1([H])C(=O)N(c1cnn(C)c1)C2` | -34.9 |
| `CC1CN(C)CCN1C(=O)c1cnc2c(cnn2C2CCCC2)c1` (centres undefined) | 17.55 |
| `CN1CCCCC1c1cncc(N2CCC(O)CC2)n1` (centres undefined) | 3.891 |
| `COCCC1(CO)CCCN(C(=O)c2ccc(C(C)C)[nH]c2=O)C1` (centres undefined) | -34.29 |
| `Cc1ocnc1C(=O)N(C)[C@@H]1CCC[C@@H](N2CCCC2)[C@@H]1O` | -17.85 |
| `COCCOc1ccc(NC(=O)N2CCCC2c2cccs2)cn1` (centres undefined) | 8.902 |
| `O=C(O)C(F)(F)F.[H][C@@]12CN(Cc3cccs3)C[C@]1([H])CN(C(=O)c1cccn1C)C2` | 28.9 |
| `Cc1cc(CN2CCCC(NS(C)(=O)=O)C2)ccc1-n1cncn1` (centres undefined) | 20.53 |
| `Cc1ccccc1CNC(=O)c1ccccc1-n1cnc(CN)c1` | -10.39 |
| `CN(C)C(=O)Cc1ccccc1NCc1nc(Cc2ccccc2)no1` | -10.8 |
| `Cc1cccc(CN2CCC3(CC2)CN(c2cccnc2)C(=O)CO3)n1.O=C(O)C(F)(F)F.O=C(O)C(F)(F)F` | 0.6078 |
| `O=C(c1ccc2c(c1)COC2)N1CCN(CC2CC2)CC1` | 11.15 |
| `O=C(O)C(F)(F)F.[H][C@@]12CN(C(=O)CCOC)C[C@]1([H])C(=O)N(Cc1cccc(C)n1)C2` | 12.52 |
| `CCOCCC(=O)N(CCC#N)c1ccc(C)c(C)c1` | -0.3576 |
| `O=C(c1csc(-c2ccc(C(F)(F)F)cc2)n1)N1CCCNCC1` | 23.05 |
| `CN1C(=O)CC(c2cnn(C)c2)C12CCN(C(=O)c1ccncc1)CC2.O=C(O)C(F)(F)F` (centres undefined) | 19.34 |
| `COC(=O)COn1c(SCC(=O)OC)nc2ccccc2c1=O` | 102.5 |
| `COc1cc(OC)cc(-c2noc(CC(N)c3ccccc3)n2)c1` (centres undefined) | 63.98 |
| `CCNS(=O)(=O)C1CCN(C(=O)c2ccc(F)cc2)C1` (centres undefined) | -6.321 |
| `CCC(C)n1cnc(S(=O)(=O)N(C)c2cccnc2N(C)C)c1` (centres undefined) | -6.436 |
| `COCCN1CCCC(CCCc2ccccn2)(C(N)=O)C1` (centres undefined) | -0.5266 |
| `COc1ccc(OCC(=O)NS(=O)(=O)c2cc(C)ccc2C)cc1` | -22.26 |
| `Cc1cc(C)cc(C(=O)NCc2ncnn2C)c1` | 15.62 |
| `[H][C@@]12CN(Cc3cccnc3OC)C[C@]1([H])CN(c1ncccn1)C2` | -31.23 |
| `COCC1CC2(CCN(CC3CC3)CC2)CN1Cc1csc(C)n1.O=C(O)C(F)(F)F.O=C(O)C(F)(F)F` (centres undefined) | 3.513 |
| `Fc1ccc2c(c1)C1(CCNCC1)CC2OCC1CC1` (centres undefined) | 34.82 |
| `Cc1ccc2c(ccn2CCC(=O)O)c1` | -5.988 |
| `Cc1ccccc1CN(C)C(=O)CCc1nc(-c2nnc[nH]2)no1` | 4.843 |
| `O=C(O)C(F)(F)F.[H][C@@]12CCN(Cc3ccc(F)cc3)[C@]1([H])CC[C@@H](C(=O)NCc1ccco1)O2` | 19.45 |
| `[H][C@]12CN(c3cnccn3)C[C@@]1(C(=O)O)CN(C1CCOCC1)C2` | -3.231 |
| `CCNC(=O)CN1CCN(c2ccnc3c(F)ccc(F)c23)CC1` | -6.594 |
| `CS(=O)(=O)NCc1cn2c(n1)CN(Cc1ccoc1)CC2.O=C(O)C(F)(F)F` | 7.609 |
| `CCN(C(=O)c1ccc(-c2ccccc2)nc1C)C1CC(=O)NC1=O` (centres undefined) | -45.05 |
| `CC(=O)NCCCC(=O)N1CCc2[nH]c(-c3ccccc3)nc2C1` | -2.835 |
| `Cc1nccc(-c2cccc(NCC(=O)NCC(=O)N3CCCC3)c2)n1` | -42.69 |
| `CCS(=O)(=O)c1ccccc1C(=O)NCc1ccnc(N(C)C)c1` | -11.05 |
| `Cc1cc(NC(=O)CN2CCc3cnc(C)nc3C2)on1` | 1.351 |
| `CN(Cc1n[nH]c2c1CCC2)C(=O)c1cccc(CCC(C)(C)O)c1` | -14.77 |
| `Cc1nn(CC(=O)NCC2(C(N)=O)CCOCC2)c(C)c1Cl` | -39.07 |
| `O=C(O)C(F)(F)F.[H][C@@]12CN(Cc3ccco3)CCO[C@]1([H])CN(S(=O)(=O)CCC)C2` | 13.72 |
| `O=C(CCC1CCCC1)NCc1nnc2ccccn12` | 14.67 |
| `CNC(=O)c1cccc(NC(=O)CN2CCCN(S(C)(=O)=O)CC2)c1` | 23.71 |
| `Cc1csc(N2CCN(C(=O)CCc3ccccn3)CC2)n1` | 0.8687 |
| `Cc1ccc(-c2snnc2C(=O)NCCCO)cc1` | 3.721 |
| `CS(=O)(=O)CCNC(=O)N(Cc1ccoc1)C1CCCCC1` | 13.91 |
| `CCn1c(=O)n(Cc2nc(C3CC3)no2)c2ccccc21` | -3.375 |
| `CC(C)N1CCCC(CN(C)c2ccc(Cn3ccnc3)cn2)C1` (centres undefined) | 7.984 |
| `CCOc1cc(/C=C/c2ncc(C(=O)NC)s2)ccc1OC` | 18.5 |
| `CC(=O)N1CCC(c2nccnc2-c2ccc(F)cc2)CC1` | -4.521 |
| `Cc1occc1C(=O)N1CCn2c(Cn3cncn3)cnc2C1C` (centres undefined) | -42.48 |
| `COCc1cc(N2CCN(C3CCCCC3)CC2)n2nccc2n1` | 6.435 |
| `CC(NC(=O)CSCC(=O)Nc1ccccc1)c1ccccc1` (centres undefined) | 21.85 |
| `Cc1ccc(N2CCc3ncnc(C)c3CC2)nn1` | -19.42 |
| `Oc1cc(C2CCCCN2C2CCCC2)nc(-c2ccncc2)n1` (centres undefined) | 15.11 |
| `[H][C@]12CN(C(=O)c3cnn(C)c3)CC[C@@]1(O)CCN(C(=O)C1CCC1)C2` | -18.58 |

8 of the entries, repeated:

| SMILES | Percent Effect |
|---|---|
| `O=C(CC1CN(Cc2ccccc2)CCO1)NCCN1CCOCC1` (centres undefined) | -25.76 |
| `O=C(N[C@@H]1CC[C@@H](N2CCCC2)[C@@H]1O)c1cc2cccc(F)c2[nH]1` | 12.15 |
| `COc1cccc2c1ccn2CCC(=O)N1CCC(C(=O)O)CC1` | 34.5 |
| `[H][C@@]12CN(Cc3cccnc3OC)C[C@]1([H])CN(c1ncccn1)C2` | -31.23 |
| `Cc1ccc(-c2snnc2C(=O)NCCCO)cc1` | 3.721 |
| `O=C(O)C(F)(F)F.[H][C@@]12CN(Cc3cccs3)C[C@]1([H])CN(C(=O)c1cccn1C)C2` | 28.9 |
| `COc1cc(OC)cc(-c2noc(CC(N)c3ccccc3)n2)c1` (centres undefined) | 63.98 |
| `O=C(c1nc2c(s1)CCCN2C(=O)C1CC1)N1CCCC1` | 3.936 |

The values are deposited in ChEMBL (CHEMBL3988442, “University of Dundee, Small-Polar-MMV Screening Library” (2021)).